Measurements reported in PubChem BioAssay AID1259308 (NCATS, 2017).
The whole screen tested about 59,000 reagents; below is a part drawn at random. In the full data, about 1,510 (2.6%) are marked active. 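Calls use total luciferase alone and ignore viability, so some active siRNAs may act by altering cell number.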 A number with no mark means an inactive call. The numbers tell different reagents against one gene apart.

- Screen: 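Candidate targets for better recombinant protein yield in mammalian cells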 (primary screen)
- Cell system: human HEK293 embryonic kidney cells stably expressing firefly luciferase (HEK-CMV-Luc2-Hygro)
- Reagents: single siRNA against human genes, 0.8 pmol siRNA per well
- Duration: 72 h
- Read-out: 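Luciferase light (ONE-Glo) measured on one replicate plate set and viability (CellTiter-Glo) on the other, scaled to a negative control siRNA, with robust z-scores and luciferase per cell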
- Direction: total luciferase, z-score and total luciferase, % of control: higher = more reporter protein produced; luciferase per cell, z-score: higher = more reporter output per viable cell; viable cells, % of control: higher = more viable cells
- Rule for the call: 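Active when the median/MAD z-score for overall luciferase is greater than 3; a gene was taken forward for validation with new siRNAs if at least two of its three siRNAs passed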
- Calls: active = raised luciferase; inactive = no rise

target gene | siRNA no. | total luciferase, z-score | total luciferase, % of control | luciferase per cell, z-score | viable cells, % of control
RAB11A | 1 | 1.03 | 102 | 0.378 | 104
RAB11A | 2 | -0.507 | 71.8 | -1.17 | 109
RAB11A | 3 | 1.38 | 109 | 0.37 | 111
CRTAM | 1 | 0.821 | 98.2 | 1.15 | 81
CRTAM | 2 | 1.53 | 112 | 0.54 | 109
CRTAM | 3 | -0.416 | 73.6 | -0.615 | 96.7
CHODL | 1 | 3.84 (active) | 158 | 2.76 | 85.6
CHODL | 2 | 0.067 | 83.2 | 0.519 | 81.1
CHODL | 3 | -1.32 | 55.6 | -1.28 | 87
WIPI2 | 1 | 0.593 | 93.7 | 0.112 | 102
WIPI2 | 2 | -0.249 | 76.9 | -0.17 | 89.9
WIPI2 | 3 | -1.72 | 47.8 | -1.54 | 80.1
HRCT1 | 1 | 0.196 | 85.8 | -0.131 | 99.2
HRCT1 | 2 | 0.197 | 85.8 | 0.597 | 81.9
HRCT1 | 3 | 0.085 | 83.6 | 0.062 | 91.9
KLHL32 | 1 | -0.563 | 70.7 | -1.35 | 113
KLHL32 | 2 | 0.0106 | 82.1 | -0.28 | 98.8
KLHL32 | 3 | -0.516 | 71.6 | -1.56 | 121
XKR6 | 1 | 0.488 | 91.6 | 0.00369 | 102
XKR6 | 2 | -0.294 | 76 | -0.281 | 91.5
XKR6 | 3 | -1.79 | 46.2 | -1.78 | 82.5
WNT16 | 1 | 3.05 (active) | 143 | 2.55 | 81.3
WNT16 | 2 | -0.648 | 69 | 0.185 | 73.4
WNT16 | 3 | 0.985 | 101 | 0.999 | 87.2
LINC03034 | 1 | -1.8 | 46.1 | -1.95 | 86.1
LINC03034 | 2 | -0.733 | 67.3 | -0.603 | 88.1
LINC03034 | 3 | 0.789 | 97.6 | 0.918 | 85.6

Reprinted from above, 6 entries:
target gene | siRNA no. | total luciferase, z-score | total luciferase, % of control | luciferase per cell, z-score | viable cells, % of control
HRCT1 | 1 | 0.196 | 85.8 | -0.131 | 99.2
HRCT1 | 2 | 0.197 | 85.8 | 0.597 | 81.9
HRCT1 | 3 | 0.085 | 83.6 | 0.062 | 91.9
KLHL32 | 1 | -0.563 | 70.7 | -1.35 | 113
KLHL32 | 2 | 0.0106 | 82.1 | -0.28 | 98.8
KLHL32 | 3 | -0.516 | 71.6 | -1.56 | 121

The list goes on:
target gene | siRNA no. | total luciferase, z-score | total luciferase, % of control | luciferase per cell, z-score | viable cells, % of control
ATAD2 | 1 | -0.251 | 76.9 | -0.556 | 99.5
ATAD2 | 2 | -0.751 | 67 | -0.497 | 85.3
ATAD2 | 3 | 0.491 | 91.7 | 0.209 | 96.9
OR8D4 | 1 | -1.28 | 56.5 | -1.19 | 86.3
OR8D4 | 2 | -0.646 | 69 | -0.497 | 87.9
OR8D4 | 3 | -0.105 | 79.8 | -0.386 | 98.7
NXF2 | 1 | -2.16 | 38.9 | -1.96 | 72.7
NXF2 | 2 | -1.24 | 57.3 | -2.09 | 111
NXF2 | 3 | -0.878 | 64.4 | -0.577 | 83.8
TMEM9B | 1 | 0.989 | 102 | 1.57 | 75.1
TMEM9B | 2 | -2.68 | 28.6 | -2.54 | 62.4
TMEM9B | 3 | 0.897 | 99.7 | 1.29 | 79.3
SGMS1 | 1 | -0.549 | 71 | -0.318 | 86.2
SGMS1 | 2 | -0.362 | 74.7 | -1.17 | 114
SGMS1 | 3 | -1.42 | 53.7 | -1.06 | 79.3
ABCB1 | 1 | 0.43 | 90.4 | 0.603 | 86.2
ABCB1 | 2 | 0.637 | 94.6 | 0.125 | 102
ABCB1 | 3 | 0.477 | 91.4 | -0.121 | 105
MICU2 | 1 | -1.18 | 58.4 | -0.797 | 80.5
MICU2 | 2 | 0.474 | 91.3 | 0.0391 | 101
MICU2 | 3 | 1.62 | 114 | 0.502 | 112
LOC284912 | 1 | 0.938 | 101 | 1.25 | 80.8
LOC284912 | 2 | -0.176 | 78.4 | 0.0277 | 86.9
LOC284912 | 3 | 0.591 | 93.6 | 0.863 | 83.4
ZIC4 | 1 | 0.176 | 85.4 | 0.282 | 88.6
ZIC4 | 2 | -0.298 | 76 | -0.259 | 90.9
ZIC4 | 3 | -0.767 | 66.6 | -0.637 | 88.1
DSP | 1 | -1.09 | 60.3 | -1.55 | 101
DSP | 2 | -1.44 | 53.3 | -1.4 | 86.1
DSP | 3 | 0.272 | 87.3 | 0.339 | 89.2
